1 molecule from doi:10.1101/2024.11.26.625466 can be followed below.

By UniProt entry, the sequences of proteins in these tests, tags left out.
UniProt P23297: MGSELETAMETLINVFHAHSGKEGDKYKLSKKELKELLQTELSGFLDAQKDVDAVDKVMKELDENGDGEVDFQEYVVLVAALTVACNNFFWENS

These are yes or no findings as the source states them, for the method shown.

For the test, the target named is S100A1, spin-labelled with MTSSL (UniProt P23297). Briefly: DEER.

B1: S100A8 (protein, UniProt P05109 1-93)
chain: MLTELEKALNSIIDVYHKYSLIKGNFHAVYRDDLKKLLETECPQYIRKKGADVWFKELDINTDGAVNFQEFLILVIKMGVAAHKKSHEESHKE
Regarding B1, the binding entry is “no binding”.
